PubChem BioAssay AID1259284 | Sanger Institute | 2017
The whole screen tested 794 reagents; this is a part drawn at random. 16 of them (2%) count as active. 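Calls concern knock-down without drug only; drug synergy was judged apart, with scores above 0.15 taken as synergy.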 Entries without a mark were called inactive. Further read-outs or replicates are left out here. The record does not give: the amount of reagent, the time to read-out.

Assay: 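Kinase genes needed for growth or acting with cancer drugs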 (primary screen)
Cell system: SW48 human colorectal cancer cells
Knock-down reagent: siRNA pool against human genes
Conditions: anchor drug BYL719 at 1 µM, cetuximab at 5 µg/ml or trametinib at 10 nM, or DMSO vehicle alone
Read-out: 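Viability scaled to non-targeting control pool, robust z-score from controls, and synergy scores for each drug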
Direction: robust z-score, no drug: higher = more cells survive knock-down
Call rule: 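a knock-down is essential if viability without drug gives a robust z-score under -3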
Calls: active = essential without drug; inactive = no change without drug

The opening 2 records, ahead of the listing:
ADCK5 — robust z-score, no drug: -0.349
GRK4 — robust z-score, no drug: 0.426

The list itself, from the start:
ADCK5 — robust z-score, no drug: -0.349
GRK4 — robust z-score, no drug: 0.426
KALRN — robust z-score, no drug: 0.426
RYK — robust z-score, no drug: 0.426
ERN1 — robust z-score, no drug: -1.13
CDK8 — robust z-score, no drug: 0.426
PIM3 — robust z-score, no drug: 0.0209
ARAF — robust z-score, no drug: 0.426
DDR1 — robust z-score, no drug: 0.426
PRKCZ — robust z-score, no drug: -1.71
FOXP1 — robust z-score, no drug: -0.585
PRKAG2 — robust z-score, no drug: 0.426
MKNK2 — robust z-score, no drug: 0.426
PIP5K1A — robust z-score, no drug: -2.22
STK11 — robust z-score, no drug: 0.426
PIM1 — robust z-score, no drug: -0.231
TESK1 — robust z-score, no drug: 0.426
NTRK2 — robust z-score, no drug: 0.426
RPS6KB2 — robust z-score, no drug: 0.426
MAP3K8 — robust z-score, no drug: 0.426
DYRK2 — robust z-score, no drug: 0.385
NEK10 — robust z-score, no drug: 0.426
GK — robust z-score, no drug: 0.426
WT1 — robust z-score, no drug: 0.287
LATS2 — robust z-score, no drug: 0.426
CSF1R — robust z-score, no drug: -3.37 (active)
GUCY2F — robust z-score, no drug: 0.426
BPTF — robust z-score, no drug: 0.426
